From PMC12071771
Results are given in words; binding and its absence hold for the method and conditions named. In cells and extracts the contact can be indirect. Some results given as binding are weak or reduced against the parent protein; the word gives no strength.

The chains behind the UniProt entries cited, without tags or fusion partners.
UniProt O70436: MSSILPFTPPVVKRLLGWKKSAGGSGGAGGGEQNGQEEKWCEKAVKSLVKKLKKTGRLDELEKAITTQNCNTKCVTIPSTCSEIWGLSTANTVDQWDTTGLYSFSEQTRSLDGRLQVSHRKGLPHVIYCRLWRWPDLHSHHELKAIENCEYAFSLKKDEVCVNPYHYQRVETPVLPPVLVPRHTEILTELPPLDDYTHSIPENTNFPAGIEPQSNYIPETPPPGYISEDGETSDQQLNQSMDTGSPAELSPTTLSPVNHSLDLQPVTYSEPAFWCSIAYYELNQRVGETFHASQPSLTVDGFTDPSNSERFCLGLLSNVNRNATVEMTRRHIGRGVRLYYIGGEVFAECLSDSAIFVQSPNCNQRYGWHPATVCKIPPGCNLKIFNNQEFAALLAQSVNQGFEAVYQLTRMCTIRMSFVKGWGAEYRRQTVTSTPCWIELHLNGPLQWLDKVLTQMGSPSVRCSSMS
UniProt O70437: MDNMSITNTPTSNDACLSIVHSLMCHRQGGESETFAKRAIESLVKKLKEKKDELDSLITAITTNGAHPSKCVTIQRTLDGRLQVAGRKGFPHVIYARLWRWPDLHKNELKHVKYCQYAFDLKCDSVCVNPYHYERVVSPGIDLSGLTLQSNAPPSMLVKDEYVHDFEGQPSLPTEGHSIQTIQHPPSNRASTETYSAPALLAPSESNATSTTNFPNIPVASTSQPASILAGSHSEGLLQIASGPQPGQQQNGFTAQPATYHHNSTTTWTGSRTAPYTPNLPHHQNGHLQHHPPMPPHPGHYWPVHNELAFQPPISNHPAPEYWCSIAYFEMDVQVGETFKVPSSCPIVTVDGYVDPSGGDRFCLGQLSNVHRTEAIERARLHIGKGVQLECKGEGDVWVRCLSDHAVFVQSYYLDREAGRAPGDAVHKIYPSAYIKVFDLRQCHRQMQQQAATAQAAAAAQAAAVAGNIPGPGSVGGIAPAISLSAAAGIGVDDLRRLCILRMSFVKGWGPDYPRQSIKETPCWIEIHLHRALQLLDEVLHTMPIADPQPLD

Molecular target: Smad2 (rat (endogenous in RBL-2H3)) (UniProt O70436)
Test: co-IP; RBL-2H3 cells stimulated with 100 pM TGF-β for the indicated times (5 min to 24 h); lysed in modified lysis buffer (1% NP-40, 60 mM octyl-β-glucoside); 300 μg of protein per IP; detection by WB

binding: binds
Substance: Smad4 (from UniProt O70437 1-552)
